In the supplement of paper PMC8728848:
The other results are listed elsewhere or left out.

Legend:
Assay in all cases: glycan array binding signal (z-score within array); higher = stronger binding
Details in all cases: glycan notation: IUPAC condensed, linker removed
GlcNAc(b1-3)Gal(b1-4)Glc = target: GlcNAc(b1-3)Gal(b1-4)Glc
In short: (§1)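 The Consortium for Functional Glycomics database supplied 3228 glycan arrays, of which those lacking an available protein sequence were dropped. The binding signal, a within-array Z-score, was averaged across arrays of the same protein sequence and across linkers. Negative scores can be read as non-binding.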

[1] = target: GlcNAc(b1-3)Gal(b1-4)GlcNAc
In short: as §1

[2] = target: GlcNAc(b1-3)Gal(b1-4)GlcNAc(b1-2)Man(a1-3)[GlcNAc(b1-3)Gal(b1-4)GlcNAc(b1-2)Man(a1-6)]Man(b1-4)GlcNAc(b1-4)GlcNAc
In short: as §1

[3] = target: GlcNAc(b1-3)Gal(b1-4)GlcNAc(b1-2)Man(a1-3)[GlcNAc(b1-3)Gal(b1-4)GlcNAc(b1-2)Man(a1-6)]Man(b1-4)GlcNAc(b1-4)[Fuc(a1-6)]GlcNAc
In short: as §1

[4] = target: GlcNAc(b1-3)Gal(b1-4)GlcNAc(b1-2)[GlcNAc(b1-3)Gal(b1-4)GlcNAc(b1-6)]Man(a1-6)[GlcNAc(b1-3)Gal(b1-4)GlcNAc(b1-2)Man(a1-3)]Man(b1-4)GlcNAc(b1-4)GlcNAc
In short: as §1

[5] = target: GlcNAc(b1-3)Gal(b1-4)GlcNAc(b1-3)Gal(b1-4)GlcNAc
In short: as §1

[6] = target: GlcNAc(b1-3)Gal(b1-4)GlcNAc(b1-3)Gal(b1-4)GlcNAc(b1-2)Man(a1-3)[GlcNAc(b1-3)Gal(b1-4)GlcNAc(b1-3)Gal(b1-4)GlcNAc(b1-2)Man(a1-6)]Man(b1-4)GlcNAc(b1-4)GlcNAc
In short: as §1

[7] = target: GlcNAc(b1-3)Gal(b1-4)GlcNAc(b1-3)Gal(b1-4)GlcNAc(b1-2)Man(a1-3)[GlcNAc(b1-3)Gal(b1-4)GlcNAc(b1-3)Gal(b1-4)GlcNAc(b1-2)Man(a1-6)]Man(b1-4)GlcNAc(b1-4)[Fuc(a1-6)]GlcNAc
In short: as §1

[8] = target: GlcNAc(b1-3)Gal(b1-4)GlcNAc(b1-3)Gal(b1-4)GlcNAc(b1-2)[GlcNAc(b1-3)Gal(b1-4)GlcNAc(b1-3)Gal(b1-4)GlcNAc(b1-6)]Man(a1-6)[GlcNAc(b1-3)Gal(b1-4)GlcNAc(b1-3)Gal(b1-4)GlcNAc(b1-2)Man(a1-3)]Man(b1-4)GlcNAc(b1-4)[Fuc(a1-6)]GlcNAc
In short: as §1

[9] = target: GlcNAc(b1-3)Gal(b1-4)GlcNAc(b1-3)Gal(b1-4)GlcNAc(b1-3)Gal(b1-4)GlcNAc(b1-2)Man(a1-3)[GlcNAc(b1-3)Gal(b1-4)GlcNAc(b1-3)Gal(b1-4)GlcNAc(b1-3)Gal(b1-4)GlcNAc(b1-2)Man(a1-6)]Man(b1-4)GlcNAc(b1-4)GlcNAc
In short: as §1

[10] = target: GlcNAc(b1-3)Gal(b1-4)GlcNAc(b1-3)Gal(b1-4)GlcNAc(b1-3)Gal(b1-4)GlcNAc(b1-2)Man(a1-3)[GlcNAc(b1-3)Gal(b1-4)GlcNAc(b1-3)Gal(b1-4)GlcNAc(b1-3)Gal(b1-4)GlcNAc(b1-2)Man(a1-6)]Man(b1-4)GlcNAc(b1-4)[Fuc(a1-6)]GlcNAc
In short: as §1

[11] = target: GlcNAc(b1-3)Gal(b1-4)GlcNAc(b1-3)Gal(b1-4)GlcNAc(b1-3)Gal(b1-4)GlcNAc(b1-2)[GlcNAc(b1-3)Gal(b1-4)GlcNAc(b1-3)Gal(b1-4)GlcNAc(b1-3)Gal(b1-4)GlcNAc(b1-6)]Man(a1-6)[GlcNAc(b1-3)Gal(b1-4)GlcNAc(b1-3)Gal(b1-4)GlcNAc(b1-3)Gal(b1-4)GlcNAc(b1-2)Man(a1-3)]Man(b1-4)GlcNAc(b1-4)[Fuc(a1-6)]GlcNAc
In short: as §1

[12] = target: GlcNAc(b1-3)Gal(b1-4)GlcNAc(b1-3)Gal(b1-4)GlcNAc(b1-3)Gal(b1-4)GlcNAc(b1-3)Gal(b1-4)GlcNAc(b1-2)Man(a1-3)[GlcNAc(b1-3)Gal(b1-4)GlcNAc(b1-3)Gal(b1-4)GlcNAc(b1-3)Gal(b1-4)GlcNAc(b1-3)Gal(b1-4)GlcNAc(b1-2)Man(a1-6)]Man(b1-4)GlcNAc(b1-4)GlcNAc
In short: as §1

[13] = target: GlcNAc(b1-3)Gal(b1-4)GlcNAc(b1-3)Gal(b1-4)GlcNAc(b1-3)Gal(b1-4)GlcNAc(b1-3)Gal(b1-4)GlcNAc(b1-2)Man(a1-3)[GlcNAc(b1-3)Gal(b1-4)GlcNAc(b1-3)Gal(b1-4)GlcNAc(b1-3)Gal(b1-4)GlcNAc(b1-3)Gal(b1-4)GlcNAc(b1-2)Man(a1-6)]Man(b1-4)GlcNAc(b1-4)[Fuc(a1-6)]GlcNAc
In short: as §1

[14] = target: GlcNAc(b1-3)Gal(b1-4)GlcNAc(b1-3)Gal(b1-4)GlcNAc(b1-3)Gal(b1-4)GlcNAc(b1-3)Gal(b1-4)GlcNAc(b1-2)[GlcNAc(b1-3)Gal(b1-4)GlcNAc(b1-3)Gal(b1-4)GlcNAc(b1-3)Gal(b1-4)GlcNAc(b1-3)Gal(b1-4)GlcNAc(b1-6)]Man(a1-6)[GlcNAc(b1-3)Gal(b1-4)GlcNAc(b1-3)Gal(b1-4)GlcNAc(b1-3)Gal(b1-4)GlcNAc(b1-3)Gal(b1-4)GlcNAc(b1-2)Man(a1-3)]Man(b1-4)GlcNAc(b1-4)[Fuc(a1-6)]GlcNAc
In short: as §1

[15] = target: GlcNAc(b1-3)Gal(b1-4)GlcNAc(b1-3)Gal(b1-4)GlcNAc(b1-3)GalNAc
In short: as §1

[16] = target: GlcNAc(b1-3)Gal(b1-4)GlcNAc(b1-3)GalNAc
In short: as §1

[17] = target: GlcNAc(b1-3)Gal(b1-4)GlcNAc(b1-3)[GlcNAc(b1-3)Gal(b1-4)GlcNAc(b1-3)]GalNAc
In short: as §1

[18] = target: GlcNAc(b1-3)Gal(b1-4)GlcNAc(b1-6)[Gal(b1-3)]GalNAc
In short: as §1

[19] = target: GlcNAc(b1-3)Gal(b1-4)GlcNAc(b1-6)[GlcNAc(b1-3)Gal(b1-3)]GalNAc
In short: as §1

[20] = target: GlcNAc(b1-3)Gal(b1-4)GlcNAc(b1-6)[GlcNAc(b1-3)]Gal(b1-4)GlcNAc
In short: as §1

GlcNAc(b1-3)GalNAc = target: GlcNAc(b1-3)GalNAc
In short: as §1

GlcNAc(b1-3)Man = target: GlcNAc(b1-3)Man
In short: as §1

[21] = target: GlcNAc(b1-3)[GlcNAc(b1-4)][GlcNAc(b1-6)]GlcNAc
In short: as §1

[22] = target: GlcNAc(b1-3)[GlcNAc(b1-6)]Gal(b1-4)GlcNAc
In short: as §1

[23] = target: GlcNAc(b1-3)[GlcNAc(b1-6)]GalNAc
In short: as §1

[24] = target: GlcNAc(b1-4)Gal(b1-4)GlcNAc
In short: as §1

GlcNAc(b1-4)GlcNAc = target: GlcNAc(b1-4)GlcNAc
In short: as §1

[25] = target: GlcNAc(b1-4)GlcNAc(b1-4)GlcNAc
In short: as §1

[26] = target: GlcNAc(b1-4)GlcNAc(b1-4)GlcNAc(b1-4)GlcNAc(b1-4)GlcNAc
In short: as §1

[27] = target: GlcNAc(b1-4)GlcNAc(b1-4)GlcNAc(b1-4)GlcNAc(b1-4)GlcNAc(b1-4)GlcNAc
In short: as §1

[28] = target: GlcNAc(b1-4)[GlcNAc(b1-6)]GalNAc
In short: as §1

[29] = target: GlcNAc(b1-6)Gal(b1-4)GlcNAc
In short: as §1

GlcNAc(b1-6)GalNAc = target: GlcNAc(b1-6)GalNAc
In short: as §1

[30] = target: GlcNAc6S(b1-3)Gal(b1-4)GlcNAc
In short: as §1

Kdn(a2-3)Gal(b1-3)GalNAc = target: Kdn(a2-3)Gal(b1-3)GalNAc
In short: as §1

Kdn(a2-3)Gal(b1-3)GlcNAc = target: Kdn(a2-3)Gal(b1-3)GlcNAc
In short: as §1

Kdn(a2-3)Gal(b1-4)Glc = target: Kdn(a2-3)Gal(b1-4)Glc
In short: as §1

Kdn(a2-3)Gal(b1-4)GlcNAc = target: Kdn(a2-3)Gal(b1-4)GlcNAc
In short: as §1

[31] = target: Kdn(a2-3)Gal(b1-4)[Fuc(a1-3)]GlcNAc
In short: as §1

Kdn(a2-6)Gal(b1-4)GlcNAc = target: Kdn(a2-6)Gal(b1-4)GlcNAc
In short: as §1

[32] = target: Man(a1-2)Man(a1-2)Man(a1-3)Man
In short: as §1

[33] = target: Man(a1-2)Man(a1-2)Man(a1-6)[Man(a1-3)]Man
In short: as §1

Man(a1-2)Man(a1-3)Man = target: Man(a1-2)Man(a1-3)Man
In short: as §1

[34] = target: Man(a1-2)Man(a1-3)[Man(a1-2)Man(a1-6)]Man
In short: as §1

B1: Mnn9-2N3 (Aspergillus fumigatus) (protein)
chain: MAVARRMRRTNPITLLLAAILAIGFFIFVLSPSTTSASPVKAGSASSSSTSQQRREDNAAENPLSPPTKPFFKSQPVRHDGQQAPPPVVQYNLNQLSSTSTSAANGERILILTPMARFVPEYWDNVVKLTYPHELISIGFIIPKNKEGNAALAALEAAIAKTQSGPIDKRFASISILRQDFEPPLQSQDEKERHKISNQKARRESMSRARNSLLFTTLGPATAWVLWLDADIVETPPTLIQDLTAHDHPVLVPNCYQRYYNSEKKKMDVRPYDYNSWIDSSTAQSMAAEMGPDEILLEGYAEMPTYRTLMAHLADTANPNPKKVIELDGVGGTALMVKAEVHRDGAMFPAFPFYHLVETEGFAKMAKRLGYSVYGLPDYFVSRNFFFFFFFFFFG
- glycan array binding signal (z-score) (GlcNAc(b1-3)Gal(b1-4)Glc): -0.193
- glycan array binding signal (z-score) [1]: -1.56
- glycan array binding signal (z-score) [2]: 1.94
- glycan array binding signal (z-score) [3]: 0.507
- glycan array binding signal (z-score) [4]: 0.891
- glycan array binding signal (z-score) [5]: -1.26
- glycan array binding signal (z-score) [6]: 1.08
- glycan array binding signal (z-score) [7]: -0.271
- glycan array binding signal (z-score) [8]: 1.76
- glycan array binding signal (z-score) [9]: 0.771
- glycan array binding signal (z-score) [10]: 0.885
- glycan array binding signal (z-score) [11]: 2.26
- glycan array binding signal (z-score) [12]: 0.578
- glycan array binding signal (z-score) [13]: -0.107
- glycan array binding signal (z-score) [14]: -0.243
- glycan array binding signal (z-score) [15]: -0.483
- glycan array binding signal (z-score) [16]: -0.145
- glycan array binding signal (z-score) [17]: -0.345
- glycan array binding signal (z-score) [18]: -0.927
- glycan array binding signal (z-score) [19]: -0.607
- glycan array binding signal (z-score) [20]: -0.329
- glycan array binding signal (z-score) (GlcNAc(b1-3)GalNAc): 0.953
- glycan array binding signal (z-score) (GlcNAc(b1-3)Man): -0.421
- glycan array binding signal (z-score) [21]: -0.123
- glycan array binding signal (z-score) [22]: -2.19
- glycan array binding signal (z-score) [23]: -0.128
- glycan array binding signal (z-score) [24]: -2.33
- glycan array binding signal (z-score) (GlcNAc(b1-4)GlcNAc): -0.273
- glycan array binding signal (z-score) [25]: -0.171
- glycan array binding signal (z-score) [26]: -0.66
- glycan array binding signal (z-score) [27]: -1.83
- glycan array binding signal (z-score) [28]: -0.241
- glycan array binding signal (z-score) [29]: -0.357
- glycan array binding signal (z-score) (GlcNAc(b1-6)GalNAc): -0.228
- glycan array binding signal (z-score) [30]: -0.495
- glycan array binding signal (z-score) (Kdn(a2-3)Gal(b1-3)GalNAc): -2.43
- glycan array binding signal (z-score) (Kdn(a2-3)Gal(b1-3)GlcNAc): 0.302
- glycan array binding signal (z-score) (Kdn(a2-3)Gal(b1-4)Glc): -0.385
- glycan array binding signal (z-score) (Kdn(a2-3)Gal(b1-4)GlcNAc): -0.027
- glycan array binding signal (z-score) [31]: -0.059
- glycan array binding signal (z-score) (Kdn(a2-6)Gal(b1-4)GlcNAc): -0.168
- glycan array binding signal (z-score) [32]: 1.22
- glycan array binding signal (z-score) [33]: -0.291
- glycan array binding signal (z-score) (Man(a1-2)Man(a1-3)Man): 0.106
- glycan array binding signal (z-score) [34]: 2.13
